# Experimental data published in PubChem BioAssay AID1347075 (National Center for Advancing Translational Sciences (NCATS), 2019).
# Several values for one entry are separate records, joined by “and”; a condition that tells them apart may be missing. Equal entries are not always repeated. About 5,500 (1.4%) of roughly 400,000 compounds were called active. The inconclusive results got no clear call from the source; some entries with a clear call stand among them for comparison. Calls follow the shape of the dose curve; as a rule, active = well fitted cell-killing curve with a large enough effect; inconclusive = small, poorly fitted or top-dose-only effect, or effect the other way; inactive = flat fitted curve, though single readings scatter. A potency beside an inconclusive call is a rough fit, not a confirmed value.
# Test: qHTS assay for MDR1-selective chemotherapeutics: Primary screen using the parental adenocarcinoma cell KB-3-1; also: nearly all actives have a fitted effect of over 60% in size
# Details: KB-3-1 viability, CellTiter-Glo ATP luminescence, 72 h; activity change, negative = cytotoxic: at 46.1 µM (top of the series)
# In short: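 KB-3-1 cells, DMEM (no phenol red) + 10% FBS; compound by pin transfer, 72 h, 37 °C. Readout: CellTiter-Glo luminescence after 10 min. Data normalized, curve-fitted.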
# % is scaled to controls: 0 for no effect and ±100 for the full control effect; potency is read from the fitted curve at half-maximal effect.
Structure (SMILES),Potency,"activity change, negative = cytotoxic"
C=CC[C@@H](CC(=O)N[C@H](CO)Cc1ccccc1)C(=O)N[C@H](COC(=O)[C@@H](CC=C)CC(=O)OC(C)(C)C)Cc1c[nH]c2ccccc12,"inconclusive: 23.1 µM [cytotoxic, single point]",
CCOC(=O)C1(CCc2ccccc2)CCN(C(=O)C2CCCO2)CC1 (stereo unspecified),,inactive: 25.7%
Cc1cccc(NC(=O)CSc2ccc(-c3ccccn3)nn2)c1C,"inconclusive: 20.6 µM [rising, single point]",
COc1ccc(-n2ncc(Cl)c(Cl)c2=O)cc1,active: 5.17 µM,
Cc1ccc(C)c(NC2CCCCC2NS(=O)(=O)c2ccccc2)c1 (stereo unspecified),"inconclusive: 16.4 µM [cytotoxic, partial curve]",
Cn1c(=O)[nH]c(=O)c2c1nc(Br)n2C/C=N/Nc1ccccc1,active: 16.4 µM,
CS(=O)(=O)c1cccc(C(=O)Nc2ccc(-c3nc4ccccc4[nH]3)cc2)c1,"inconclusive: 36.6 µM [cytotoxic, full curve, poor fit]",
O=C(C=Cc1ccccc1)c1cccs1,"inconclusive: 23.1 µM [cytotoxic, single point]",
CCN(c1ccccc1)S(=O)(=O)c1ccc(C(=O)Nc2nnc(CSC)o2)cc1,"inconclusive: 3.26 µM [cytotoxic, full curve, poor fit]",
CCCCNC(=O)c1cc(-c2ccc(F)cc2)on1,active: 18.4 µM,
Cc1cc(C(=O)Nc2cccc(C(F)(F)F)c2)c2c(C)nn(-c3cccc(F)c3)c2n1,active: 18.4 µM,
COc1ccc(N2CCN(C(=O)C3CCC(Cn4c(=S)[nH]c5ccccc5c4=O)CC3)CC2)cc1 (stereo unspecified),active: 18.4 µM,
CSc1nc(C)cc(OCC(=O)N/N=C/c2ccccc2O)n1,active: 5.8 µM,
O=C(NCCC1CCCCN1S(=O)(=O)c1ccc(F)cc1)C(=O)Nc1ccccc1F (stereo unspecified),,inactive: -1.96%
CN1CCN(S(=O)C23CC4CC(CC(C4)C2)C3)CC1 (stereo unspecified),,inactive: -8.43%
CCCCn1c(N)c(N(CCOC)C(=O)c2cccc(S(=O)(=O)N(CC)c3ccccc3)c2)c(=O)[nH]c1=O,,inactive: 7.54%
Cc1ccccc1NC(=O)c1cc(S(=O)(=O)N2CCOCC2)cn1C,,inactive: 4.26%
COc1ccc(N(C(=O)CCl)C(C(=O)NCCc2ccccc2)c2cccs2)cc1 (stereo unspecified),active: 7.31 µM,
O=S(=O)(NC1=NCCCCC1)c1ccccc1Cl,"inconclusive: 32.6 µM [cytotoxic, single point]",
COC(=O)C1=C(C)N(Cc2ccccc2)C(=NCCc2ccccn2)N[C@H]1c1cccc(C(F)(F)F)c1,"inconclusive: 29.1 µM [cytotoxic, single point] and inconclusive: 25.9 µM [cytotoxic, single point]",
COc1cc(Cl)c(C)cc1NC(=O)CCn1cnc2onc(-c3ccc(F)cc3)c2c1=O,,inactive: 3.27%
O=C(Nc1ccnn1C1CCN(C2CCCCC2)CC1)c1cccc(F)c1,,inconclusive: 30.4%
Cc1ccc(CN2CCN(CC(=O)NCCCN3CCN(c4ccc(F)cc4)CC3)C2=O)cc1,active: 16.4 µM,
CCCCC(=O)N(C)c1c(CC)nc2c(OCc3ccc(C(F)(F)F)cc3)cccn12,"inconclusive: 29.1 µM [cytotoxic, single point]",

# Quoted at random: 5 records from the list.
Structure (SMILES),Potency,"activity change, negative = cytotoxic"
O=S(=O)(NC1=NCCCCC1)c1ccccc1Cl,"inconclusive: 32.6 µM [cytotoxic, single point]",
C=CC[C@@H](CC(=O)N[C@H](CO)Cc1ccccc1)C(=O)N[C@H](COC(=O)[C@@H](CC=C)CC(=O)OC(C)(C)C)Cc1c[nH]c2ccccc12,"inconclusive: 23.1 µM [cytotoxic, single point]",
Cc1ccc(CN2CCN(CC(=O)NCCCN3CCN(c4ccc(F)cc4)CC3)C2=O)cc1,active: 16.4 µM,
O=C(Nc1ccnn1C1CCN(C2CCCCC2)CC1)c1cccc(F)c1,,inconclusive: 30.4%
O=C(NCCC1CCCCN1S(=O)(=O)c1ccc(F)cc1)C(=O)Nc1ccccc1F (stereo unspecified),,inactive: -1.96%

# More compounds

Structure (SMILES),Potency,"activity change, negative = cytotoxic"
COc1ccc(CC(=O)Nc2nc(C)cs2)cc1S(=O)(=O)N1CCOCC1,,inactive: 20.3%
CC(C)(C)OC(=O)N(CCc1ccccc1)Cc1cccc(OCc2cccc(NC(=O)C3CC3)c2)c1,"inconclusive: 29.1 µM [cytotoxic, single point]",
Cc1ccc(Nc2nc(CSc3nnc(-c4ccccc4)n3C)cs2)cc1,"inconclusive: 18.4 µM [cytotoxic, single point]",
C/[N+]([O-])=C\c1ccc([N+](=O)[O-])o1,"inconclusive: 32.6 µM [cytotoxic, single point]",
CN(C)c1nc2c(c(=O)[nH]c(=O)n2C)n1Cc1ccccc1Br,"inconclusive: 20.6 µM [cytotoxic, partial curve, poor fit]",
c1ccc(Oc2c3ccccc3nc3ccccc23)cc1,"inconclusive: 29.1 µM [cytotoxic, single point]",
N=C1C(c2nc3ccccc3[nH]2)=C(O)CN1c1ccc(CC(=O)O)cc1,,inactive: 1.06%
O=C(Nc1ccc(N2CCOCC2)nc1)c1ccc(C(F)(F)F)cc1,"inconclusive: 20.6 µM [cytotoxic, partial curve, poor fit]",
O=C(c1ccc(OC2CCN(CCc3ccccc3)CC2)cc1)N1CCC(CO)CC1,"inconclusive: 16.4 µM [cytotoxic, single point]",
CC(C)c1c(C(=O)N/N=C/c2cccc3ccccc23)nnn1-c1nonc1N,"inconclusive: 18.4 µM [cytotoxic, single point]",
COc1cc(CCC(=O)Nc2nnc(C)s2)cc(OC)c1OC,"inconclusive: 8.2 µM [cytotoxic, partial curve, poor fit]",
CCOc1cc(S(=O)(=O)Nc2ccc(CC)cc2)ccc1Cl,"inconclusive: 10.3 µM [cytotoxic, partial curve, poor fit]",
Cn1c(=O)[nH]c2cc(Cl)cnc21,"inconclusive: 29.1 µM [cytotoxic, single point]",
CCc1cccc2c(C(=O)COC(=O)c3c(C)noc3C)c[nH]c12,,inactive: 7.59%
CN1C(=O)C2(c3ccccc31)C1CCCC=C1C(C#N)=C(N)C2(C#N)C#N (stereo unspecified),,inactive: -7.58%
CCCN1CCC(=O)N(CCSc2ccc(C)cc2)CC1,"inconclusive: 29.1 µM [cytotoxic, single point]",
CCCN(CCC)CCNC(=O)c1cc2c(=O)n(CC)c3ccccc3c2s1,"inconclusive: 4.11 µM [cytotoxic, full curve]",
CCc1ccc2c(Cl)c(C(=O)N/N=C/c3c[nH]c4ccccc34)sc2c1,"inconclusive: 29.1 µM [cytotoxic, single point]",
Cc1ccc(NC(=O)CSc2nc(O)c(Cc3ccccc3)c(=O)n2-c2ccccc2)cc1,,inactive: -8.74%
CN(Cc1ccccc1)c1ccc(/C=C/c2nc3ccccc3s2)cc1,active: 7.31 µM,
O=C(c1cc(-c2ccccc2)nc2ccccc12)N1CCc2ccccc2C1,"inconclusive: 20.6 µM [cytotoxic, single point]",
COc1ccccc1C(CCNCc1ccccc1)c1ccc(OC(C)C)cc1 (stereo unspecified),"inconclusive: 20.6 µM [cytotoxic, single point]",
CCOC(=O)c1ccc(N2C(=O)c3[nH]nc(-c4ccccc4)c3C2c2ccc(C(C)C)cc2)cc1 (stereo unspecified),active: 18.4 µM,
O=C(O)C1C2CC3C(OC(=O)C31)C2Cl (stereo unspecified),,inactive: 1.38%

Structure (SMILES),Potency,"activity change, negative = cytotoxic"
O=C(Nc1cccc(Cl)c1)Nc1nnc(-c2ccncc2)s1,active: 13 µM,
Cc1ccc(Cl)cc1NC(=O)C(NS(=O)(=O)c1ccc2c(c1)CCC(=O)N2)c1ccccc1 (stereo unspecified),,inactive: 2.58%
Cc1ccc2c(c1)c1c(c(=O)n(-c3ccccc3C)c(=O)n1Cc1cccc(F)c1)n2C,"inconclusive: 6.51 µM [cytotoxic, full curve]",
O=C(NCCCN1CCCC1=O)c1cccc(S(=O)(=O)Nc2ccc(Br)cc2)c1,"inconclusive: 5.8 µM [cytotoxic, full curve, poor fit]",
Cc1nc(-c2ccncc2)sc1C(=O)Nc1ccc(Br)cc1,,inconclusive: 39.9%
Cc1ccc(NC(=O)COC(=O)c2ccccc2OCC(=O)N(C)C)cc1,"inconclusive: 29.1 µM [rising, single point]",
CNC(=O)c1cc(-c2cccs2)on1,"inconclusive: 13 µM [cytotoxic, partial curve, poor fit]",
COc1ccc(C=NNC(=O)c2cc(C)oc2C)cc1O,"inconclusive: 29.1 µM [cytotoxic, single point]",
Cc1ccc(NC(=O)CC2Nc3ccccc3NC2=O)cc1Cl (stereo unspecified),"inconclusive: 29.1 µM [cytotoxic, single point]",
COc1ccc(CNCCC(c2ccc(OC(C)C)cc2)c2ccccc2OC)cc1 (stereo unspecified),"inconclusive: 29.1 µM [cytotoxic, single point]",
O=C(CCn1c(=O)sc2ccccc21)NCCC1=CCCCC1,,inactive: 14.1%
COc1ccccc1C=NNC(=O)C(=O)NN=Cc1ccccc1OC,,inactive: 4.19%
COc1cc(OC)c2c(-c3cccc(-c4ccc(O)cc4)c3)cc(=O)oc2c1,active: 16.4 µM,
Cc1cc(N/N=C/c2ccc(F)cc2)nc(NCc2ccccc2)n1,"inconclusive: 29.1 µM [cytotoxic, single point]",
CC(C)(C)C(=O)Nc1ccc2nc(SCc3ccccc3)sc2c1,"inconclusive: 29.1 µM [cytotoxic, single point]",
CC(NS(=O)(=O)c1ccc(Br)cc1)C(=O)NCCc1ccccc1 (stereo unspecified),,inactive: 14.8%
CC(C)(C)n1c(O)c2n(c1=O)Cc1ccccc1N=C2c1ccccc1,,inactive: 0.0564%
Cc1cccc(NC(=O)CC2C(=O)OCCN2Cc2ccccc2)c1 (stereo unspecified),"inconclusive: 29.1 µM [rising, single point]",
COc1ccc(C(=O)n2c(-c3ccco3)nc3ccccc32)cc1,"inconclusive: 29.1 µM [cytotoxic, single point]",
COc1cccc(CNC(=O)CCn2c(=O)c3cccn3c3cccnc32)c1,inactive,
C#CCN(C[C@@H]1[C@@H](OC(=O)NCc2ccccc2F)[C@@H](OC(=O)NCc2ccccc2F)Cn2c(=O)ccc(=O)n21)S(=O)(=O)c1ccc(C)cc1,active: 14.6 µM,
CC(=NNC(=O)c1ccncc1)c1ccc2ccccc2c1O,"inconclusive: 3.66 µM [cytotoxic, full curve, poor fit]",
COc1ccc(/C=C2\CCc3ccccc3C2=O)cc1Cn1nc(C)cc1C,"inconclusive: 29.1 µM [cytotoxic, single point]",
